The other results are listed elsewhere or left out.

In this assay the target is T1, OsSMF1 (Oryza sativa, UniProt Q6ZLB0 1-436).
T1 sequence: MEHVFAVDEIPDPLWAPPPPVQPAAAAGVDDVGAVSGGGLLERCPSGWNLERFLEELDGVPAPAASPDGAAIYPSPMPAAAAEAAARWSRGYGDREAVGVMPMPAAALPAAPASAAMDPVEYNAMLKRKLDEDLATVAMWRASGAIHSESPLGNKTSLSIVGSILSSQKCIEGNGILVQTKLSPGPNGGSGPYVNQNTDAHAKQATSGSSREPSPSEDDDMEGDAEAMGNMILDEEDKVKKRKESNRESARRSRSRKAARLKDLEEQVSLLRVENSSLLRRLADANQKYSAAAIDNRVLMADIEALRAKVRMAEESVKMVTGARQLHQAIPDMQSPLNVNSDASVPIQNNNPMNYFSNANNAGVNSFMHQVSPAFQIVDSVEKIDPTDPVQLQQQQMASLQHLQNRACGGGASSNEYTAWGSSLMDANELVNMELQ
The experiment in a line: protein-binding microarray (RPBM); PBS, 2% BSA, 51.3 ng/ul salmon testes DNA, 50 uM zinc acetate, 200 nM TF, 25 C, 1 h; high values mean tight binding. The note with it: protein: recombinant; tags: N-terminal polyhistidine and DsRed monomer fusion (pET32a); chain copies: 2; label: CyDye5-dUTP incorporated in the synthesized complementary strand; 3' TTTTT single-stranded linker to array surface; dsDNA, one strand shown. Summed up: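 Polyhistidine-tagged DsRed fusions of transcription factors, joined at the N-terminus, were expressed in E. coli BL21-CodonPlus and isolated on Ni–NTA. They were incubated at 200 nM for 1 h at 25 °C on a custom Agilent array, double-stranded and BSA-blocked, in PBS with 2% BSA, salmon testes DNA and 50 µM zinc acetate. The binding signal is per-feature fluorescence intensity (arbitrary units) read on an Axon 4000B scanner after washing.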
As to “TGAAAATGGTGTTGGCATCATAAAATATTTAACCAACCCCCGGAGTCACCTAGTGCAG”, the binding signal was 3150 fluorescence intensity (a.u.). The result for “CGCGCGTGCAAGGAGGCGTGAGGTGGGCAATTGGTCATTGCGGAGTCACCTAGTGCAG” reads 5110 fluorescence intensity (a.u.); that for “AGTCAGCACCCTGTCACCTAACTAGCGTCGGTAATTAACACGGAGTCACCTAGTGCAG”, 4030 fluorescence intensity (a.u.); that for “TCTGACGGGTGGGCCCCAGTGGTCGCACACGTAAACCCTTCGGAGTCACCTAGTGCAG”, 3610 fluorescence intensity (a.u.). In the case of “TTATCAAGTTAATCTGATTAGCCACGTGCTGATTGATAAGCGGAGTCACCTAGTGCAG”, the binding signal is 3940 fluorescence intensity (a.u.).

As for “GGCCCACGTGGGCCCACGCTGACTCAGCAGCCACGTAGGACGGAGTCACCTAGTGCAG”, the binding signal is 14500 fluorescence intensity (a.u.). “CTCGCCACGCCGACACGAACACGTGTACACGACGCGACGCCGGAGTCACCTAGTGCAG”: the binding signal was 13300 fluorescence intensity (a.u.). Next, “ACTTTGATTCTTTCTGCCTCTGCGTACGTGCGTGAGAGAGCGGAGTCACCTAGTGCAG”: 3470 fluorescence intensity (a.u.); “ACAATTACTGTATTGTGCATATAAGCTGCATATCTATCACCGGAGTCACCTAGTGCAG”: 39900 fluorescence intensity (a.u.); “GATCTCAAGTCTACCCCTCTTTCGTCTTTCCCGATCCAAACGGAGTCACCTAGTGCAG”: 3360 fluorescence intensity (a.u.). Next, “GCGCGGCAGAGGGTGACGGCGGCGGCAACCAGACGGTCGGCGGAGTCACCTAGTGCAG”: 4140 fluorescence intensity (a.u.); “TTCTGTTCTGACGAGACGAAGAATGTGTCTCCTTATGTGGCGGAGTCACCTAGTGCAG”: 3260 fluorescence intensity (a.u.). As to “GTTTGAATAGGTCTTTCGTCCCACGTGGCATTGACGTGGCCGGAGTCACCTAGTGCAG”, the binding signal was 45700 fluorescence intensity (a.u.). Next, “TGATGGGCTGCTTGAACGGGGAGTGGCTGGCGTGGAACGACGGAGTCACCTAGTGCAG”: 5160 fluorescence intensity (a.u.); “TTCTATCGAATTGCTTTCAGTTGCTGATGCTGCCTTGGTGCGGAGTCACCTAGTGCAG”: 3160 fluorescence intensity (a.u.); “ACGGGCTCACCGTCACCGCGCCCAGCGGCGCCTGCTGCTCCGGAGTCACCTAGTGCAG”: 4580 fluorescence intensity (a.u.). Take “CGGAGAAGTTGTACTTCGTGCTGCCCAAGGCGATGTTCATCGGAGTCACCTAGTGCAG”: the binding signal is 3720 fluorescence intensity (a.u.). With “ACCAAGATTGACCTCAAGTCACCTGCACACAATCAGACAACGGAGTCACCTAGTGCAG”, the binding signal is 21200 fluorescence intensity (a.u.). Next, “TCTTATCCACTATCCTTTCCTACGTGGTGTTCGTTTAGTGCGGAGTCACCTAGTGCAG”: 8560 fluorescence intensity (a.u.). For the sequence “ATGTTGTCGAGCTGGGGTCGCCGTCATCAACTGTATGGAGCGGAGTCACCTAGTGCAG”, the binding signal was 4000 fluorescence intensity (a.u.). The result for “AGCCATACCCCGCACACCACGCCACGCAGATCTTTTCTCCCGGAGTCACCTAGTGCAG” reads 4860 fluorescence intensity (a.u.). Next, “ACAGTGATGCCCCGCCGCCGCCACCTCCACCACCCTCTCACGGAGTCACCTAGTGCAG”: 3160 fluorescence intensity (a.u.).

As for “TTTTCTAGAAACGTTACCACGTGTCGGCTCAGAAAGGCCGCGGAGTCACCTAGTGCAG”, the binding signal is 9620 fluorescence intensity (a.u.). The result for “AAATCTTCTTTACTACAATTTGCATTGGATGACTATTTCTCGGAGTCACCTAGTGCAG” reads 3200 fluorescence intensity (a.u.); that for “CTTAGAATAGTATGGAGGACACAATAGCTGGACAACAAGGCGGAGTCACCTAGTGCAG”, 24000 fluorescence intensity (a.u.); that for “TCCCCTTCAGCTGATGGTGCGTGGCAGCAGGCAAGCCCGCCGGAGTCACCTAGTGCAG”, 5070 fluorescence intensity (a.u.).

As to “GGAGACAAGAGTCACCTCGTGTGAGGCCCCGATCCGGTGACGGAGTCACCTAGTGCAG”, the binding signal was 32400 fluorescence intensity (a.u.). “GGCAACAGGTCAAACCTCAAGCGTCAGCGTCAATGGTTGTCGGAGTCACCTAGTGCAG”: the binding signal was 5120 fluorescence intensity (a.u.). Consider “ATGGGTTGTTCAACACGTGTATTTCTTTTCATGCAGAATCCGGAGTCACCTAGTGCAG”, for which the binding signal was 8500 fluorescence intensity (a.u.). Next, “ATCTTATGGAATCCTATGAAATTCATATGGAATGCCTAATCGGAGTCACCTAGTGCAG”: 65000 fluorescence intensity (a.u.). With “AGAATCTTGGCACGTGGAGCGTGCCACCGTCAATACTCATCGGAGTCACCTAGTGCAG”, the binding signal was 4820 fluorescence intensity (a.u.).

As for “TCGCAGCCGGCGATCGACAGCAGCGTCATCGTGGTGGTGGCGGAGTCACCTAGTGCAG”, the binding signal is 6520 fluorescence intensity (a.u.). As to “GATAATCACTTTCCCTTTACATATCTGCATCAACTTTCTCCGGAGTCACCTAGTGCAG”, the binding signal is 20400 fluorescence intensity (a.u.). The result for “GTAGTTTCTTTTACAGCATTGGCTTTAAGTCACCAAGAACCGGAGTCACCTAGTGCAG” reads 5060 fluorescence intensity (a.u.). The result for “TGCGATTGATTCGGTATTAGAGCCTGCATACGTGTCATCTCGGAGTCACCTAGTGCAG” reads 22100 fluorescence intensity (a.u.); that for “GCAAACGAAGCAATCGGTTAGCGTCCAGGATCACCTCCAGCGGAGTCACCTAGTGCAG”, 3670 fluorescence intensity (a.u.).

For “GTGCAGGATTCTTTCGTTGCCATGTTGTCACTCACCCGTGCGGAGTCACCTAGTGCAG”, the binding signal is 5070 fluorescence intensity (a.u.). Consider “GTTAATCTCAATAAAATACTTAGCTCCATAAATAATTTTGCGGAGTCACCTAGTGCAG”, for which the binding signal is 36700 fluorescence intensity (a.u.). Next, “CTACTTGCTGATCTACTTTTACGCTGGCAACTAGCGAGTACGGAGTCACCTAGTGCAG”: 3640 fluorescence intensity (a.u.). As to “ATATCCATTTTCTCGTCAATGCCACGGCATGTTTGAGTTACGGAGTCACCTAGTGCAG”, the binding signal is 4280 fluorescence intensity (a.u.).

For the sequence “TTTGTGTGTGTGTTGTTGGTCGGGTGGGGTCGCCGGCGCCCGGAGTCACCTAGTGCAG”, the binding signal was 4270 fluorescence intensity (a.u.). Next, “AAGGGGATATGGTGGTCATGAATAGATAGATACGTTAGGTCGGAGTCACCTAGTGCAG”: 3420 fluorescence intensity (a.u.).

As to “CGGAAGTACGGGCTGCCGCGGGCTGCGACGTGCACCCGTTCGGAGTCACCTAGTGCAG”, the binding signal is 3450 fluorescence intensity (a.u.). On to “CCGGACGCCAGCTCACGAATATCCACCCGATTTAATCCCGCGGAGTCACCTAGTGCAG”, for which the binding signal is 5900 fluorescence intensity (a.u.). The result for “CTGGAGGGATTCACCTGGAGATGACAGGGCAGAACGTTACCGGAGTCACCTAGTGCAG” reads 5600 fluorescence intensity (a.u.); that for “ACTGCTCTGATACCTTTGTCAGATCCCGTGATTAGAAATGCGGAGTCACCTAGTGCAG”, 3440 fluorescence intensity (a.u.). The result for “GCACGAGCCCAACACCAGTCGTGTCATGTCGTGCTTGGGTCGGAGTCACCTAGTGCAG” reads 4460 fluorescence intensity (a.u.); that for “TGCGAAGAGTCAATGATGTCATATATTTCAAAACGGAGAGCGGAGTCACCTAGTGCAG”, 20800 fluorescence intensity (a.u.); that for “CCGCCTACGCCACTCGCTTGCGTGGCTTCGCTCCCACCGACGGAGTCACCTAGTGCAG”, 8660 fluorescence intensity (a.u.). In the case of “CTCGGGTGGGCCACACATGGGCTGTCAGCCCATCACCAAGCGGAGTCACCTAGTGCAG”, the binding signal is 3240 fluorescence intensity (a.u.). The result for “GACTAGTGGGCCCACGCAGCATGATGGTCCACACGTCAGTCGGAGTCACCTAGTGCAG” reads 5840 fluorescence intensity (a.u.). For “AAGAACATCATCATGACGTCGGTGAACGAGGCGTGGGCGGCGGAGTCACCTAGTGCAG”, the binding signal was 4920 fluorescence intensity (a.u.). The result for “ATCTCGTCCAGATAGTGCCTATAGTAACCTGCCAAATAAACGGAGTCACCTAGTGCAG” reads 3420 fluorescence intensity (a.u.); that for “GGAGCGCTGGCGCCGGGGCCCCAGCGTCGCCACGTCGATGCGGAGTCACCTAGTGCAG”, 5990 fluorescence intensity (a.u.).
